Measured values taken from publication PMC7935978.

Molecular target: GFP-FUS-Gal4 (UniProt P04386)
Experiment: EMSA
Conditions: 40 mM Tris-HCl pH 7.5, 150 mM KCl, 2 mM MgCl2, 1 mM DTT, 0.2 mg/ml BSA; EMSA 30 min at room temperature; recombinant protein; protein details: 7xHis, sfGFP(A206K); label: 5' Quasar 670

“ATATCGGAGGACAGTCCTCCGAATA (double strand) [1x Gal4DBD binding site 25-bp]”: binds.

The exact form of at least one protein or probe is not confirmed. At least one verdict rests on a figure or table, not on a statement of the authors.
